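The test measures how much the compounds block CLK4 phosphorylation activity, tracked as ADP made and read as luminescence after a one-hour reaction. Each compound was tested as a 7-point series from about 0.0051 to 80 µM. The number is the fitted AC50 potency, the concentration giving half the maximal inhibition; lower values mean stronger inhibition. Calls come from curve class and fitted AC50 scores: 40–100 is active, 1–39 inconclusive, 0 inactive; these rows have partial, single-point or poorly fitted falling curves.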

By UniProt entry, the sequences of proteins in these tests, tags left out.
UniProt Q9HAZ1, whole entry, target on record: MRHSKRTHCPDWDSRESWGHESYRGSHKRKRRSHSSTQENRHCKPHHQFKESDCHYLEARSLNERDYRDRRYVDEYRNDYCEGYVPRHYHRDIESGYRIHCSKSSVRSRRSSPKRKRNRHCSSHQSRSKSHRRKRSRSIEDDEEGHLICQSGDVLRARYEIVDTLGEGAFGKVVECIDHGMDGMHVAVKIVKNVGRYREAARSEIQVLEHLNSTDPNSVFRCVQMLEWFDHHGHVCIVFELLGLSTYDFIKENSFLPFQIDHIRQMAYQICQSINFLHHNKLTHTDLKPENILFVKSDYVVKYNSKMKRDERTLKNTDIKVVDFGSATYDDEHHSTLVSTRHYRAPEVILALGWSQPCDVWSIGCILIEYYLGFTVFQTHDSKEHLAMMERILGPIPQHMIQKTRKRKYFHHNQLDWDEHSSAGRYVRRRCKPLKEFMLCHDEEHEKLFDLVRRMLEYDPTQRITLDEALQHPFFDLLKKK

Values are in µM. Every entry below has the call inconclusive. These entries are mostly ones the record files as inconclusive; other results of the assay are not listed here. Potencies fitted to partial, single-point or poorly fitting curves are rough. Activity scores are not listed here.

{"compound": "COc1cccc(Cn2c(=O)cnc3cnc(N4CCN(C)CC4)nc32)c1", "Potency (µM)": "17.78", "curve": "falling, partial curve"}
{"compound": "COCCn1c(=O)c(-c2cccs2)nc2cncnc21", "Potency (µM)": "35.48", "curve": "falling, single point"}
{"compound": "COc1ccc(CNc2ncnc3ccc(-c4ccccc4OC)cc23)c(OC)c1", "Potency (µM)": "25.12", "curve": "falling, single point"}
{"compound": "COc1ccc2[nH]cc(CCNc3cc(-c4ccccc4CN(C)C)ncn3)c2c1", "Potency (µM)": "31.62", "curve": "falling, single point"}
{"compound": "CS(=O)(=O)Nc1cccc(-c2cncnc2-n2ccnc2)c1", "Potency (µM)": "15.85", "curve": "falling, partial curve"}
{"compound": "Cc1nc2cnc(Nc3ccccc3)nc2n(CCc2ccccc2)c1=O", "Potency (µM)": "0.0398", "curve": "falling, full curve, poor fit"}
{"compound": "COc1ccc2[nH]cc(CCNc3ccnc(-c4ccc5c(c4)OCO5)n3)c2c1", "Potency (µM)": "31.62", "curve": "falling, single point"}
{"compound": "c1cncc(-c2nc(N3CCNCC3)c3ccccc3n2)c1", "Potency (µM)": "31.62", "curve": "falling, single point"}
{"compound": "CN(C)C(=O)c1ccc(-c2ccc3ncnc(NCc4ccccc4)c3c2)cc1", "Potency (µM)": "35.48", "curve": "falling, partial curve"}
{"compound": "Cc1ccccc1-c1cc(Nc2ccccc2)ncn1", "Potency (µM)": "35.48", "curve": "falling, single point"}
{"compound": "COCCn1c(=O)c(-c2cccc(C#N)c2)nc2cnc(Nc3ccccc3)nc21", "Potency (µM)": "4.467", "curve": "falling, partial curve"}
{"compound": "COCCn1c(=O)c(C)nc2cnc(Nc3ccccc3)nc21", "Potency (µM)": "7.943", "curve": "falling, partial curve"}
{"compound": "COc1ccc(CNc2ncnc3ccc(-c4ccc(N(C)C)cc4)cc23)c(OC)c1", "Potency (µM)": "12.59", "curve": "falling, partial curve"}
{"compound": "Cc1ccccc1-c1nc(N2CCNCC2)c2ccccc2n1", "Potency (µM)": "35.48", "curve": "falling, single point"}
{"compound": "CNc1cc(-c2ccccc2C)ncn1", "Potency (µM)": "31.62", "curve": "falling, single point"}
{"compound": "CN(C)C(=O)c1ccc(-c2ccc3ncnc(N4CCOCC4)c3c2)cc1", "Potency (µM)": "12.59", "curve": "falling, partial curve"}
{"compound": "Cn1c(=O)c(-c2cccc(F)c2)nc2cncnc21", "Potency (µM)": "25.12", "curve": "falling, single point"}
{"compound": "N#Cc1cccc(-c2cc(NCc3ccccc3)ncn2)c1", "Potency (µM)": "31.62", "curve": "falling, partial curve"}
{"compound": "COc1cccc(-c2nc(N3CCN(C)CC3)c3ccccc3n2)c1", "Potency (µM)": "28.18", "curve": "falling, partial curve"}

The last 2 entries again:

* N#Cc1cccc(-c2cc(NCc3ccccc3)ncn2)c1 : Potency 31.62 µM (falling, partial curve)
* COc1cccc(-c2nc(N3CCN(C)CC3)c3ccccc3n2)c1 : Potency 28.18 µM (falling, partial curve)

Data taken from PubChem BioAssay AID1771, deposited by NCATS (2009).